{"source": "paper PMC4015959", "about": "“The Structural and Functional Basis of Catalysis Mediated by NAD(P)H:acceptor Oxidoreductase (FerB) of Paracoccus denitrificans” (PLoS ONE, 2014)", "origin": "cited, not measured here", "system": "apoflavodoxin from Anabaena PCC 7119", "conditions": "cited from earlier work"}
{"smiles": "Cc1cc2nc3c(=O)[nH]c(=O)nc-3n(C[C@H](O)[C@H](O)[C@H](O)COP(=O)(O)O)c2cc1C", "note": "[FMN, flavin mononucleotide]", "values": [{"measurement": "Gibbs binding energy component, isoalloxazine part", "value": -5.02, "unit": "kcal/mol"}, {"measurement": "Gibbs binding energy component, phosphate part", "value": -6.93, "unit": "kcal/mol"}, {"measurement": "Gibbs binding energy component, ribityl part", "value": -1.2, "unit": "kcal/mol"}, {"measurement": "overall Gibbs binding energy", "value": -13.1, "unit": "kcal/mol"}]}
